Data as given in PubChem BioAssay AID652243 (Drosophila RNAi Screening Center, 2013).
In all, the deposit lists about 24,000 reagents; shown is a random part of those with a known target gene and a result. Of all reagents, 246 (1%) were called active. 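Plates not normalised; calls are printed but the firefly/Renilla ratio behind them is not deposited; fold cut for lowering reported inconsistently.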 The raw values are shown without normalisation. Entries without a mark were called inactive. Reagents against one gene are numbered here. Not stated in the record: the amount of reagent.

Test: 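Fly genes required for human androgen receptor driven transcription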 (primary screen)
System: Drosophila S2R+ cells
Reagents: long dsRNA against Drosophila genes
Time to read-out: 72 h (48 h, then 24 h hormone)
Challenge: synthetic androgen R1881 at 10 nM for 24 h
Detection: 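Per-well raw luminescence of the androgen-driven firefly reporter and of the Renilla control, two replicates each, without normalisation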
Reading the numbers: firefly reporter light: higher = more light from androgen-responsive reporter; Renilla control light: higher = more constitutive control signal (cell number, transfection)
Hit rule: 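Across duplicate plates, a knock-down whose log firefly/Renilla ratio shifted a set fold down or up from the GFP/LacZ control mean was a hit; the downward cut appears as both 1.5 and 3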
Calls: active = hit: reporter lowered or raised; inactive = no hit

CG6330 (GeneID 43240) — firefly reporter light, replicate 1 = 69635; firefly reporter light, replicate 2 = 66026; Renilla control light, replicate 1 = 4.86e5; Renilla control light, replicate 2 = 5.53e5
blo (GeneID 35866) #1 — firefly reporter light, replicate 1 = 8.39e5; firefly reporter light, replicate 2 = 6.95e5; Renilla control light, replicate 1 = 1.04e6; Renilla control light, replicate 2 = 1.01e6
blo (GeneID 35866) #2 — firefly reporter light, replicate 1 = 3.84e5; firefly reporter light, replicate 2 = 3.19e5; Renilla control light, replicate 1 = 7.46e5; Renilla control light, replicate 2 = 6.35e5
CG31556 (retired record) (GeneID 318800) #1 — firefly reporter light, replicate 1 = 3.56e5; firefly reporter light, replicate 2 = 4.02e5; Renilla control light, replicate 1 = 1.05e6; Renilla control light, replicate 2 = 2.39e6
CG31556 (retired record) (GeneID 318800) #2 — firefly reporter light, replicate 1 = 5.85e5; firefly reporter light, replicate 2 = 5.81e5; Renilla control light, replicate 1 = 2.74e6; Renilla control light, replicate 2 = 2.01e6
CG31556 (retired record) (GeneID 318800) #3 — firefly reporter light, replicate 1 = 4.71e5; firefly reporter light, replicate 2 = 4.25e5; Renilla control light, replicate 1 = 6.40e5; Renilla control light, replicate 2 = 6.94e5
ftz-f1 (GeneID 40045) #1 — firefly reporter light, replicate 1 = 7.52e5; firefly reporter light, replicate 2 = 4.76e5; Renilla control light, replicate 1 = 4.99e5; Renilla control light, replicate 2 = 6.01e5
ftz-f1 (GeneID 40045) #2 — firefly reporter light, replicate 1 = 7.11e5; firefly reporter light, replicate 2 = 5.48e5; Renilla control light, replicate 1 = 2.22e6; Renilla control light, replicate 2 = 1.47e6
OstDelta (GeneID 37029) #1 — firefly reporter light, replicate 1 = 5.99e5; firefly reporter light, replicate 2 = 5.77e5; Renilla control light, replicate 1 = 6.31e5; Renilla control light, replicate 2 = 4.77e5
OstDelta (GeneID 37029) #2 — firefly reporter light, replicate 1 = 2.24e5; firefly reporter light, replicate 2 = 2.23e5; Renilla control light, replicate 1 = 5.64e5; Renilla control light, replicate 2 = 4.29e5
Eato (GeneID 34783) #1 — firefly reporter light, replicate 1 = 1.17e6; firefly reporter light, replicate 2 = 9.24e5; Renilla control light, replicate 1 = 1.99e6; Renilla control light, replicate 2 = 2.15e6
Eato (GeneID 34783) #2 — firefly reporter light, replicate 1 = 3.11e5; firefly reporter light, replicate 2 = 3.16e5; Renilla control light, replicate 1 = 1.41e6; Renilla control light, replicate 2 = 1.58e6
eIF5 (GeneID 32566) — firefly reporter light, replicate 1 = 88897; firefly reporter light, replicate 2 = 92964; Renilla control light, replicate 1 = 4.34e5; Renilla control light, replicate 2 = 5.47e5
CG7443 (GeneID 40992) — firefly reporter light, replicate 1 = 69111; firefly reporter light, replicate 2 = 81361; Renilla control light, replicate 1 = 1.83e6; Renilla control light, replicate 2 = 1.71e6
IscU (GeneID 41059) — firefly reporter light, replicate 1 = 1.34e5; firefly reporter light, replicate 2 = 1.22e5; Renilla control light, replicate 1 = 2.67e6; Renilla control light, replicate 2 = 2.05e6
CG34193 (GeneID 5740572) — firefly reporter light, replicate 1 = 1.26e6; firefly reporter light, replicate 2 = 1.12e6; Renilla control light, replicate 1 = 2.55e6; Renilla control light, replicate 2 = 1.75e6
flfl (GeneID 41675) — firefly reporter light, replicate 1 = 34312; firefly reporter light, replicate 2 = 12759; Renilla control light, replicate 1 = 2.22e5; Renilla control light, replicate 2 = 1.84e5
CG7379 (GeneID 42140) #1 — firefly reporter light, replicate 1 = 6.06e5; firefly reporter light, replicate 2 = 9.44e5; Renilla control light, replicate 1 = 1.64e6; Renilla control light, replicate 2 = 2.24e6
CG7379 (GeneID 42140) #2 — firefly reporter light, replicate 1 = 6.24e5; firefly reporter light, replicate 2 = 7.72e5; Renilla control light, replicate 1 = 6.30e5; Renilla control light, replicate 2 = 8.54e5
CG34056 (GeneID 38106) — firefly reporter light, replicate 1 = 72223; firefly reporter light, replicate 2 = 41174; Renilla control light, replicate 1 = 5.92e5; Renilla control light, replicate 2 = 5.56e5
CG14669 (GeneID 40652) #1 — firefly reporter light, replicate 1 = 54299; firefly reporter light, replicate 2 = 65914; Renilla control light, replicate 1 = 1.08e6; Renilla control light, replicate 2 = 1.21e6
CG14669 (GeneID 40652) #2 — firefly reporter light, replicate 1 = 3.93e5; firefly reporter light, replicate 2 = 4.16e5; Renilla control light, replicate 1 = 4.64e5; Renilla control light, replicate 2 = 3.08e5
CG32809 (GeneID 31121) #1 — firefly reporter light, replicate 1 = 3.87e5; firefly reporter light, replicate 2 = 1.96e5; Renilla control light, replicate 1 = 1.57e6; Renilla control light, replicate 2 = 1.29e6
CG32809 (GeneID 31121) #2 — firefly reporter light, replicate 1 = 63478; firefly reporter light, replicate 2 = 75534; Renilla control light, replicate 1 = 6.31e5; Renilla control light, replicate 2 = 4.51e5
Or42a (GeneID 35514) — firefly reporter light, replicate 1 = 1.92e5; firefly reporter light, replicate 2 = 1.41e5; Renilla control light, replicate 1 = 1.45e6; Renilla control light, replicate 2 = 7.90e5
ppan (GeneID 42502) #1 — firefly reporter light, replicate 1 = 3.16e5; firefly reporter light, replicate 2 = 3.00e5; Renilla control light, replicate 1 = 3.23e6; Renilla control light, replicate 2 = 2.82e6
ppan (GeneID 42502) #2 — firefly reporter light, replicate 1 = 4.13e5; firefly reporter light, replicate 2 = 5.15e5; Renilla control light, replicate 1 = 9.36e5; Renilla control light, replicate 2 = 1.28e6

3 of these entries in another layout.
gene knocked down	dsRNA no.	firefly reporter light, replicate 1	firefly reporter light, replicate 2	Renilla control light, replicate 1	Renilla control light, replicate 2
CG31556 (retired record) (GeneID 318800)	3	4.71e5	4.25e5	6.40e5	6.94e5
ftz-f1 (GeneID 40045)	1	7.52e5	4.76e5	4.99e5	6.01e5
ftz-f1 (GeneID 40045)	2	7.11e5	5.48e5	2.22e6	1.47e6
